The results in this text go back to US20150230430A1 (University of Pennsylvania, published 2015).

Test [1] deals with T1, Gonadotropin Releasing Hormone (GnRH) peptide (mammalian (same amino acid sequence in all mammals)).
T1 sequence (peptide, N-terminal pyroglutamic acid (pGlu); C-terminal amide (GlyNH2)): EHWSYGLRPG
The test is described as follows: ELISA on plate-coated GnRH peptide, detection with anti-human IgG1.

Test [2] has the same target. Description: GnRH ELISA (refers back to the preceding experiment).

These are yes or no findings as the source states them, for the method shown. Some entries that bind do so weakly or less than the wild type. Tags and fused reporters may be left off the sequences shown.

B1: chimeric anti-GnRH antibody (murine variable regions of hybridoma USASK/DSIL-LHRH-A1, ATCC HB-9094, fused with human IgG1 heavy chain and kappa light chain … (antibody, V domains shown)
VH: QIQLVQSGPELKKPGETVKISCKASGYPFTNYGMNWVKQAPGKGLKWMGWINTYTGEPACADDFRGRFAISLETSARTAYLQINNLINEDTATYFCARTGGGRYNYGMDYWGQGTSVTVSS
VL: QIVLTQSPAIMSASPGEKVTITCSATSSVSYIHWFQQKPGTSPKLWIYSTSNLASGVPVRFSGSGSGTSYSLTISRMEAEDAATYYCQQRSSYPPTFGGGTKLEIKR
notes: Full-length chimeric heavy and light chains: murine variable regions on human IgG1 and human kappa constant domains; Tested as filtered supernatant of transiently transfected 293 HEK cells; also called chimeric GnRH antibody; chimeric antibody
As to B1, the binding entry in test [1] and in test [2] was “binds” each time.
